Experimental data: patent US4743616A, “Novel biologically active compound having anti-prolyl endopeptidase activity” (Suntory Limited, priority 1984, dated 1988)

How the values were obtained:
[1] = system: experimental amnesia caused in rats by scopolamine; assay: Preventive effect against experimental amnesia caused in rats by scopolamine (intraperitoneal administration); format: in vivo, Wister male rats; conditions: 1 h before learning, scopolamine 3 mg/kg i.p. after learning
Experimental: (§1) Several of the anti-prolyl endopeptidase compounds of the present invention were checked for their ability to prevent the inhibition of long-term memory fixation by scopolamine. Solutions of physiological saline that contained selected compounds of the present inventions in varying amounts (20 mg, 2 mg, 0.2 mg and 0.02 mg/kg) were administered intraperitoneally once a day to Wister male rats (100-120 g). One hour after the administration, electric shocks were applied to the rats so that they would acquire passive avoidance learning. Immediately thereafter, scopolamine was administered intraperitoneally to each rat in an amount of 3 mg per kg of body weight.
(§2) The result of the test was assessed both 24 hours and 48 hours after the administration of scopolamine. The number of amnesic rats and that of sound rats were counted for each of the control group (rats which were not administered the test compounds but administered intraperitoneally only scopolamine and physiological saline) and the treated group (rats which were administered both the test compound and scopolamine).

[2] = system: experimental amnesia caused in rats by scopolamine; assay: Preventive effect against experimental amnesia caused in rats by scopolamine (oral administration); format: in vivo; conditions: scopolamine 3 mg/kg i.p. after learning
Experimental: as §1, §2
Varying amounts (1, 5, 25 and 100 mg/kg) of the compound were administered orally to each of the rats and tested for its anti-amnesic effects by the same procedures as used in Example 9.

Compound | Learning: Initial avoidane time ([1]; 0.2 mg/kg i.p.) [s] | Learning: No. of avoidances during learning ([1]; 0.2 mg/kg i.p.) | Learning: learning time ([1]; 0.2 mg/kg i.p.) [s] | Learning: Initial avoidane time ([1]; 2 mg/kg i.p.) [s] | Learning: No. of avoidances during learning ([1]; 2 mg/kg i.p.) | Learning: learning time ([1]; 2 mg/kg i.p.) [s] | Learning: Initial avoidane time ([1]; 20 mg/kg i.p.) [s] | Learning: No. of avoidances during learning ([1]; 20 mg/kg i.p.) | Learning: learning time ([1]; 20 mg/kg i.p.) [s] | Learning: Initial avoidane time ([1]; 0.02 mg/kg i.p.) [s] | Learning: No. of avoidances during learning ([1]; 0.02 mg/kg i.p.) | Learning: learning time ([1]; 0.02 mg/kg i.p.) [s] | further results
O=CC1CCCN1C(=O)Cc1ccccc1 (stereo not drawn) [Compound No. 1] | 2.4 | 1.8 | 48.3 | 3.5 | 1.8 | 45.2 | – | – | – | – | – | – | –
COC(=O)[C@@H]1CCCN1C(=O)Cc1ccccc1 [Compound No. 2, N-phenylacetyl-proline methyl ester] | – | – | – | – | – | – | 4.2 | 2.1 | 37.2 | – | – | – | –
O=CC1CCCN1C(=O)CCc1ccccc1 (stereo not drawn) [Compound No. 3, N-(3-phenylpropionyl)-prolinal] | 2.2 | 1.4 | 34.0 | 3.1 | 2.3 | 43.2 | – | – | – | 2.4 | 1.6 | 41.0 | –
COC(=O)[C@@H]1CCCN1C(=O)CCc1ccccc1 [Compound No. 4, N-(3-phenylpropionyl)-proline methyl ester] | – | – | – | 2.8 | 2.1 | 39.8 | 2.9 | 1.6 | 40.5 | – | – | – | –
O=CC1CCCN1C(=O)CCCc1ccccc1 (stereo not drawn) [Compound No. 5] | 2.1 | 1.8 | 42.9 | 2.4 | 2.0 | 37.4 | – | – | – | 2.4 | 1.9 | 44.3 | Learning: Initial avoidane time ([2]; 1 mg/kg p.o.): 2.3 s; Learning: No. of avoidances during learning ([2]; 1 mg/kg p.o.): 1.9; Learning: learning time ([2]; 1 mg/kg p.o.): 45.3 s; Learning: Initial avoidane time ([2]; 5 mg/kg p.o.): 2.8 s; Learning: No. of avoidances during learning ([2]; 5 mg/kg p.o.): 1.9; Learning: learning time ([2]; 5 mg/kg p.o.): 47.7 s; Learning: Initial avoidane time ([2]; 25 mg/kg p.o.): 2.1 s; Learning: No. of avoidances during learning ([2]; 25 mg/kg p.o.): 1.3; Learning: learning time ([2]; 25 mg/kg p.o.): 39.1 s; Learning: Initial avoidane time ([2]; 100 mg/kg p.o.): 2.4 s; Learning: No. of avoidances during learning ([2]; 100 mg/kg p.o.): 1.5; Learning: learning time ([2]; 100 mg/kg p.o.): 43.3 s
COC(=O)C1CCCN1C(=O)CCCc1ccccc1 (stereo not drawn) [Compound No. 6, N-(4-phenyl-n-butyryl)-proline methyl ester] | 2.7 | 1.4 | 43.5 | 3.2 | 1.7 | 42.9 | – | – | – | – | – | – | –
